For assay [1], the target named is T1, Shwachman–Bodian–Diamond syndrome (SBDS) protein (mouse (endogenous in FDC.P1)) (UniProt P70122).
T1 sequence: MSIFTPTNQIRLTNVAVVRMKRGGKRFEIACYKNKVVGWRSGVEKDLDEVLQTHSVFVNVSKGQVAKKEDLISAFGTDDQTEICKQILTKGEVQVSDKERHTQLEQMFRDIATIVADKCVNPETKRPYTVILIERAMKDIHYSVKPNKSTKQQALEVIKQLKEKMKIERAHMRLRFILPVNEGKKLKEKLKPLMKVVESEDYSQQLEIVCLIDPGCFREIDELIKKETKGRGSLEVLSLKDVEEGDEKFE
As to the kind of experiment: co-IP; immunoprecipitation with SBDS antibody from c-KIT/D816V cells, Western blot. (In western blotting, separated proteins are transferred to a membrane and probed.)

The chains behind the UniProt entries cited, without tags or fusion partners.
UniProt P63330: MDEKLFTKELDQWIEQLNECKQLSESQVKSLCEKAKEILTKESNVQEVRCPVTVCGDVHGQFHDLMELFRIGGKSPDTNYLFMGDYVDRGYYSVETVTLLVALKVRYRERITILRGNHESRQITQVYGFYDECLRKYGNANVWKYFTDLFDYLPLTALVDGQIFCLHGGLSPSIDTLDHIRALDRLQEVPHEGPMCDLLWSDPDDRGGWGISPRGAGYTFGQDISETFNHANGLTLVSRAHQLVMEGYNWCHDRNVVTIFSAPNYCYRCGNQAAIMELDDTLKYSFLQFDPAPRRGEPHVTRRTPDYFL
UniProt Q61937: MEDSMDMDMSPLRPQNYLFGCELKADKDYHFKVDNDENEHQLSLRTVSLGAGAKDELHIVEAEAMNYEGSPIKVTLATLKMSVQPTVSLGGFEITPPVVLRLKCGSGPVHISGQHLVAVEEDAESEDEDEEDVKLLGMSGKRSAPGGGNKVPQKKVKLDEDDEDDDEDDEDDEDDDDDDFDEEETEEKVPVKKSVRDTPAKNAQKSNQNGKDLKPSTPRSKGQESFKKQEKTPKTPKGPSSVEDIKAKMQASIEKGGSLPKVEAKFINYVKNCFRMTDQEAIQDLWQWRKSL
UniProt Q9EQU5: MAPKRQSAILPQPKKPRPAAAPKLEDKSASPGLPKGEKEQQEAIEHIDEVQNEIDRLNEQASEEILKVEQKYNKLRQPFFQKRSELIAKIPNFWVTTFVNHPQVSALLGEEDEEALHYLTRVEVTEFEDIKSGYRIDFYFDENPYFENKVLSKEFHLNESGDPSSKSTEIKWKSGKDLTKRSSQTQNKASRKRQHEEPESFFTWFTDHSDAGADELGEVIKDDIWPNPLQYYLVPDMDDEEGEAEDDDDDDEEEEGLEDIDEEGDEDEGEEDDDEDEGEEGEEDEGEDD

In assay [2] the target is catalytic subunit of PP2A, PP2Ac (PPP2CA) (mouse (endogenous in FDC.P1)) (UniProt P63330). The assay can be described thus: co-IP; reciprocal immunoprecipitation with PP2Ac antibody (PP2Ac as bait) from c-KIT/D816V cells, Western blot.

These are yes or no findings as the source states them, for the method shown. In cells and extracts the contact can be indirect. Some results given as binding are weak or reduced against the parent protein; the word gives no strength.

For the molecule “nucleophosmin (NPM1) (from UniProt Q61937 1-292)”, the binding entry in assay [1] was “binds”. As to SET (from UniProt Q9EQU5 1-289), the binding result in assay [1] is on record as “binds”.

“catalytic subunit of PP2A, PP2Ac (PPP2CA) (from UniProt P63330 1-309) (enzyme)”: the binding result in assay [1] is on record as “binds”.

B1: Shwachman–Bodian–Diamond syndrome (SBDS) protein (protein, UniProt P70122 1-250)
chain: MSIFTPTNQIRLTNVAVVRMKRGGKRFEIACYKNKVVGWRSGVEKDLDEVLQTHSVFVNVSKGQVAKKEDLISAFGTDDQTEICKQILTKGEVQVSDKERHTQLEQMFRDIATIVADKCVNPETKRPYTVILIERAMKDIHYSVKPNKSTKQQALEVIKQLKEKMKIERAHMRLRFILPVNEGKKLKEKLKPLMKVVESEDYSQQLEIVCLIDPGCFREIDELIKKETKGRGSLEVLSLKDVEEGDEKFE
With B1, the binding result in assay [2] is on record as “binds”.

Source of the values: paper PMC7685970.
